Assay results from PubChem BioAssay AID602313 (National Center for Advancing Translational Sciences (NCATS), 2012).
Hit rate of the full screen: of about 390,000 compounds, about 760 (0.19%) were called active. Inconclusive results, whose numbers are uncertain, are shown with a selection of clear calls. The call rests on the fitted dose curve; in most records, active means well fitted inhibition curve with a large enough effect; inconclusive means small, poorly fitted or top-dose-only effect; inactive means flat fitted curve, though single readings scatter. Potencies of inconclusive entries are doubtful fits and often do not repeat.

assay: qHTS for Inhibitors of Vif-A3F Interactions: qHTS; conditions: HeLa A3F-eYFP + Vif (tagged APOBEC3F with the HIV-1 protein that degrades it), YFP fluorescence increase; series mostly up to 46.1 µM; further: nearly all actives have a fitted effect of over 65% in size
Outline: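 HeLa cells stably expressing Vif plus C-terminally eYFP-tagged A3F were seeded, incubated overnight at 37 deg C, dosed with compound, incubated overnight again at 37 deg C. Yellow fluorescence (Ex 488/Em 500-530) reported blocked Vif-mediated A3F-eYFP degradation.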
Potency means the concentration at half of the fitted maximal effect.

Row | SMILES | Potency
1 | CCCNC(=S)N(Cc1ccccc1)Cc1nc2ccccc2c(=O)[nH]1 | inconclusive: 3.16 µM [inhibitor, partial curve, poor fit]
2 | CCN(CC)S(=O)(=O)c1ccc(Cl)c(NC(=O)COC(=O)/C=C/c2ccc(O)c(OC)c2)c1 | inconclusive: 7.94 µM [inhibitor, partial curve]
3 | Cc1cccc(NC(=S)Nn2cnnc2)c1C | inactive
4 | O=C(CSc1oc(-c2ccco2)nc1S(=O)(=O)c1ccccc1)NCC1CCCO1 (centres undefined) | inactive
5 | CCOC(=O)N1CCN(Cc2cc(Cl)c3cccnc3c2O)CC1 | inconclusive: 0.562 µM [inhibitor, full curve, poor fit]
6 | CN(C)C(=O)c1ccc(NC(=O)c2cc(-c3ccco3)nc3ccccc23)cc1 | inactive
7 | COc1ccc(C(CC(=O)N2CCCCC2)c2c(OC)cc(OC)c3c(-c4ccccc4)cc(=O)oc23)cc1 (centres undefined) | inactive
8 | O=C(Cc1ccccc1)NC1CCN(C(=O)NCc2ccccc2)CC1 | inactive
9 | COc1ccc(COn2c(=O)c(C)[n+]([O-])c3ccccc32)cc1OC | inconclusive: 35.5 µM [inhibitor, single point]
10 | C=CCn1c(O)c(C2=c3ccccc3=NC2=O)c2ccccc21 | inactive
11 | COc1ccc(OC)c(S(=O)(=O)N2CCCC(C(=O)NCCN3CCOCC3)C2)c1 (centres undefined) | inconclusive: 14.1 µM [inhibitor, single point]
12 | Cc1cc(C)c(C)c(S(=O)(=O)NCc2ccc(C(=O)NCC3CCCO3)cc2)c1C (centres undefined) | inconclusive: 0.355 µM [inhibitor, full curve, poor fit]
13 | COc1ccc(NC(=O)C(=O)NCCc2csc3nc(-c4ccccc4C)nn23)cc1 | inconclusive: 28.2 µM [inhibitor, single point]
14 | CCOc1ccc2c(c1)OC(c1ccc(C)cc1)(C(F)(F)F)NC2=O (centres undefined) | inconclusive: 31.6 µM [inhibitor, partial curve, poor fit]
15 | CCCCCCCCCCCCCCCC[n+]1ccc(/C=N/O)cc1 | inactive
16 | COc1cccc(/C=N/NC(=O)c2[nH]nc3c2CCc2ccccc2-3)c1O | active: 25.1 µM
17 | CCOC(=O)/C(O)=C(\C#N)c1nc2ccccc2[nH]1 | inconclusive: 17.8 µM [inhibitor, single point]
18 | Clc1cccc(/C(Cc2nc3ccccc3[nH]2)=N\Nc2ccccc2)c1 | inconclusive: 10 µM [inhibitor, partial curve, poor fit]
19 | O=c1c(O)c(-c2cccs2)oc2ccccc12 | active: 2.82 µM
20 | C=CCn1c(SCC(=O)N2c3ccccc3Sc3ccccc32)nnc1-c1ccco1 | inactive
21 | COCCNC(=S)N/N=C1\CC(C)CC(C)(C)C1 (centres undefined) | inconclusive: 28.2 µM [inhibitor, single point]
22 | CCN1C(=O)/C(=C2/C=Cc3ccccc3N2C)OC1=S | inconclusive: 25.1 µM [inhibitor, single point]
23 | CCCC1=Nc2cc(C(=O)NCCN3CCCC3)ccc2Sc2ccccc21 | inconclusive: 28.2 µM [inhibitor, single point]

Row | SMILES | Potency
24 | CC(=O)c1cccc(NC(=O)c2ccccc2N(C)S(=O)(=O)c2ccc(C)cc2)c1 | inconclusive: 1.12 µM [inhibitor, partial curve, poor fit]
25 | C/C(=N\NC(=O)c1ccccc1F)c1ccc2c(c1)Nc1ccccc1S2 | inconclusive: 20 µM [inhibitor, partial curve, poor fit]
26 | CCOc1ccc(OCCC(=O)N(CCC(C)C)c2c(N)n(Cc3ccccc3)c(=O)[nH]c2=O)cc1 | inconclusive: 0.562 µM [inhibitor, full curve, poor fit]
27 | Cc1ccc(S(=O)(=O)N2CCCC2)cc1S(=O)(=O)N1CCCC1 | inactive
28 | CCOc1ccc(NC(=O)CSc2cn[nH]n2)cc1 | inconclusive: 35.5 µM [inhibitor, single point]
29 | CC(C)(C)OC(=O)NCc1ccc(CNC(=O)c2[nH]cnc2C(=O)N[C@@H](Cc2ccccc2)C(=O)OCc2ccccc2)cc1 | inactive
30 | CCCN(C(=O)COC(=O)c1cc(CC)c(C)s1)c1c(N)n(Cc2ccccc2)c(=O)[nH]c1=O | inconclusive: 35.5 µM [inhibitor, single point]
31 | C=CCOc1c(Br)cc(/C=C2/NC(=S)N(C(C)=O)C2=O)cc1OC | inconclusive: 7.08 µM [inhibitor, partial curve, poor fit]
32 | O=C(N/N=C/c1ccc(OC(F)F)cc1OC(F)F)NC1CCCCC1 | inconclusive: 14.1 µM [inhibitor, single point]
33 | Oc1ccc(Nc2ccc3ccccc3c2)cc1 | inactive
34 | Cc1ccc(/C=N/n2c(-c3ccccc3)n[nH]c2=S)cc1 | inactive
35 | CC[n+]1ccccc1/C=C/c1ccc(N(C)C)cc1 | active: 22.4 µM
36 | CC(C)N(C(=O)[C@H]1CC(CC(=O)NCC23CC4CC(CC(C4)C2)C3)C(=O)N2CCc3c([nH]c4ccccc34)[C@]12C)C(C)C (some centres undefined) | inconclusive: 22.4 µM [inhibitor, single point]
37 | CCc1ccc(NC(=O)CC2C(=O)N(c3ccc(OC)cc3)C(=O)N2Cc2cccs2)cc1 (centres undefined) | inactive
38 | CCCCCCC(O)(c1ccc(OC)cc1)C(CN1CCOCC1)c1ccccc1 (centres undefined) | inconclusive: 20 µM [inhibitor, single point]
39 | CC(C)Oc1ccccc1C1CC(=O)Nc2cc3c(cc21)OCO3 (centres undefined) | inactive
40 | Cc1c(C(=O)Nc2nc(-c3ccccn3)cs2)oc2ccccc12 | inconclusive: 35.5 µM [inhibitor, single point]
41 | Cc1cccc(C)c1N(CC(=O)NCc1ccco1)C(=O)CNS(=O)(=O)c1ccc(F)cc1 | inconclusive: 35.5 µM [inhibitor, single point]
42 | CN(CCCNC(=O)c1cc2c(=O)n(C)c3ccccc3c2s1)Cc1ccccc1 | inconclusive: 35.5 µM [inhibitor, single point]
43 | CCn1cc(S(=O)(=O)Nc2cc(F)ccc2C)cn1 | inconclusive: 5.62 µM [inhibitor, single point]
44 | O=C(NC1CCCC1)c1cccc(NC(=O)c2ccco2)c1 | inactive
45 | c1ccc(CN2CCN(C(c3ccccc3)c3ccccc3)CC2)cc1 | inconclusive: 35.5 µM [inhibitor, single point]
46 | O=S(=O)(c1cnc(Cl)c(Br)c1)N1CCc2ccccc21 | inactive

Row | SMILES | Potency
47 | COc1cc2ccccc2cc1C(=O)NCC(c1cccs1)N(C)C (centres undefined) | inactive
48 | C(=N\Nc1nncc2ccccc12)/c1ccccn1 | inconclusive: 15.8 µM [inhibitor, single point]
49 | O=C(c1cn(-c2ccccc2)nc1-c1cccnc1)N1CCN(S(=O)(=O)c2ccccc2F)CC1 | inconclusive: 3.16 µM [inhibitor, single point]
50 | COc1cccc(/C=N/NC(=O)c2c(-c3ccccc3)noc2C)c1O | inconclusive: 3.98 µM [inhibitor, partial curve, poor fit]
51 | CCOC(=O)Cc1csc(NC(=O)c2sc3nc4c(C)cc(C)cc4cc3c2N)n1 | active: 25.1 µM
52 | CCN(CC)c1ccc(NC(=O)c2cccnc2)c(C)c1 | inconclusive: 6.31 µM [inhibitor, single point]
53 | CNC(=S)SCCOc1ccc(C)cc1 | inconclusive: 25.1 µM [inhibitor, single point]
54 | CN(C)C(=O)c1coc2nc3ccccc3nc12 | inconclusive: 11.2 µM [inhibitor, partial curve]
55 | Nc1ncc2c(n1)-c1ccccc1CC2 | inconclusive: 35.5 µM [inhibitor, single point]
56 | COc1ccc(NC(=O)c2oc3ccccc3c2NC(=O)C23CC4CC(CC(C4)C2)C3)cc1 | inactive
57 | COc1ccc(OC)c(NC(=O)c2c(NCc3ccc(N(C)C)cc3)sc3c2CCCC3)c1 | inactive
58 | COC(=O)[C@@]1(Cc2ccc(OC)cc2)[C@@H]2C(=CC(=O)[C@H]2CC(=O)C(=O)N2CCCC2)CN1C(=O)c1ccccc1 | inactive
59 | NC(N)=N/N=C/c1ccc2cccc(OCc3ccccc3)c2n1 | inconclusive: 22.4 µM [inhibitor, single point]
60 | CCc1ccc(NS(=O)(=O)c2c(-c3ccccc3)csc2C(=O)OC)cc1 | inactive
61 | CC1CC(C)CN(C(=S)SCc2nc(N)nc(Nc3ccccc3)n2)C1 (centres undefined) | inconclusive: 17.8 µM [inhibitor, partial curve, poor fit]
62 | O=C(Nc1ccc(F)cc1)c1ccc2c(c1)NC(=O)c1ccccc1S2 | inconclusive: 17.8 µM [inhibitor, single point]
63 | COc1ccc(C(=O)N2CCc3cc(OC)c(OC)cc3C2c2ccc(OC)c(OC)c2)cc1OC (centres undefined) | inconclusive: 35.5 µM [inhibitor, partial curve, poor fit]
64 | CC1=C(C(=O)Nc2ccccc2)C(c2ccccn2)n2nc(SCc3ccccc3Cl)nc2N1 (centres undefined) | inconclusive: 2.82 µM [inhibitor, full curve, poor fit]
65 | Cc1ccc(S(=O)(=O)n2nc(-c3ccco3)nc2NCc2ccc(N(C)C)cc2)cc1 | inactive
66 | O=C(Cn1cc(S(=O)(=O)c2ccccc2)c(=O)c2cc3c(cc21)OCO3)Nc1ccccc1 | inconclusive: 35.5 µM [inhibitor, single point]
67 | O=C(CN(Cc1ccccc1Cl)C(=O)CNS(=O)(=O)c1ccc(F)cc1)NCC1CCCO1 (centres undefined) | inconclusive: 35.5 µM [inhibitor, single point]
68 | CC(C)c1ccc(NC(=O)CSc2nc(=O)n(CCCN3CCOCC3)c3c2CCC3)cc1 | inactive
69 | C/C(=N\Nc1nc2ccccc2[nH]1)c1ccc(N2CCOCC2)cc1 | inconclusive: 35.5 µM [inhibitor, single point]

In a second layout: results already given
Row,SMILES,Potency
45,c1ccc(CN2CCN(C(c3ccccc3)c3ccccc3)CC2)cc1,"inconclusive: 35.5 µM [inhibitor, single point]"
50,COc1cccc(/C=N/NC(=O)c2c(-c3ccccc3)noc2C)c1O,"inconclusive: 3.98 µM [inhibitor, partial curve, poor fit]"

Some of these compounds in order of heavy-atom count, low to high.
Row | SMILES | Potency
21 | COCCNC(=S)N/N=C1\CC(C)CC(C)(C)C1 (centres undefined) | inconclusive: 28.2 µM [inhibitor, single point]
16 | COc1cccc(/C=N/NC(=O)c2[nH]nc3c2CCc2ccccc2-3)c1O | active: 25.1 µM
41 | Cc1cccc(C)c1N(CC(=O)NCc1ccco1)C(=O)CNS(=O)(=O)c1ccc(F)cc1 | inconclusive: 35.5 µM [inhibitor, single point]
